Results deposited as PubChem BioAssay AID1259290 (Sanger Institute, 2017).
Test: 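Identify kinases needed for colorectal cancer cell survival, with or without anchor drugs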 (primary screen). Cells: human SNUC1 colorectal cancer cells. Reagents: siRNA pool against human genes. Conditions: anchor drugs BYL719 1 µM, cetuximab 5 µg/ml or trametinib 10 nM, or DMSO vehicle alone. Measured: 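Viability averaged over replicates and scaled to non-targeting siRNA, robust z-score with no drug, and synergy scores by drug for BYL719, cetuximab and trametinib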. Scale: viability z-score, siRNA alone: higher = more viable cells; low values mean essential gene; viability vs control, siRNA alone: higher = more viable cells. Rule for the call: 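Essential when the robust viability z-score with siRNA alone falls below -3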. Meaning of the calls: active = essential: knock-down alone cut viability (z below -3); inactive = no clear viability loss with knock-down alone.
The deposit covers 794 reagents; below is a part drawn at random. 9 of them (1.1%) count as active. 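Calls rest on knock-down alone, not drug synergy; synergy above 0.15 was grouped apart and does not affect calls.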 A number with no mark means an inactive call. No viability above 1 is reported: the scale is capped. Not all columns of the deposit are shown. No sequences are given here. Not stated in the record: the amount of reagent, the time to read-out.

The opening 4 entries, to show the layout:
{"target": "NME6", "viability z-score, siRNA alone": 0.936, "viability vs control, siRNA alone": 1}
{"target": "CRKL", "viability z-score, siRNA alone": -0.469, "viability vs control, siRNA alone": 0.873}
{"target": "NUAK1", "viability z-score, siRNA alone": -0.677, "viability vs control, siRNA alone": 0.855}
{"target": "CIT", "viability z-score, siRNA alone": -0.385, "viability vs control, siRNA alone": 0.881}

Main list, from the first entry:
{"target": "NME6", "viability z-score, siRNA alone": 0.936, "viability vs control, siRNA alone": 1}
{"target": "CRKL", "viability z-score, siRNA alone": -0.469, "viability vs control, siRNA alone": 0.873}
{"target": "NUAK1", "viability z-score, siRNA alone": -0.677, "viability vs control, siRNA alone": 0.855}
{"target": "CIT", "viability z-score, siRNA alone": -0.385, "viability vs control, siRNA alone": 0.881}
{"target": "MAP4K4", "viability z-score, siRNA alone": 0.0925, "viability vs control, siRNA alone": 0.924}
{"target": "PIK3CA", "viability z-score, siRNA alone": 0.936, "viability vs control, siRNA alone": 1}
{"target": "AK1", "viability z-score, siRNA alone": 0.936, "viability vs control, siRNA alone": 1}
{"target": "MAPK9", "viability z-score, siRNA alone": -0.304, "viability vs control, siRNA alone": 0.888}
{"target": "ACO1", "viability z-score, siRNA alone": 0.545, "viability vs control, siRNA alone": 0.965}
{"target": "PIK3C2G", "viability z-score, siRNA alone": -0.771, "viability vs control, siRNA alone": 0.846}
{"target": "FGFR2", "viability z-score, siRNA alone": -1.02, "viability vs control, siRNA alone": 0.824}
{"target": "NUP98", "viability z-score, siRNA alone": -2.72, "viability vs control, siRNA alone": 0.671}
{"target": "PNCK", "viability z-score, siRNA alone": 0.936, "viability vs control, siRNA alone": 1}
{"target": "EXOSC10", "viability z-score, siRNA alone": -0.997, "viability vs control, siRNA alone": 0.826}
{"target": "PKLR", "viability z-score, siRNA alone": 0.936, "viability vs control, siRNA alone": 1}
{"target": "MET", "viability z-score, siRNA alone": 0.583, "viability vs control, siRNA alone": 0.968}
{"target": "IKBKG", "viability z-score, siRNA alone": 0.936, "viability vs control, siRNA alone": 1}
{"target": "IP6K1", "viability z-score, siRNA alone": 0.936, "viability vs control, siRNA alone": 1}
{"target": "TAOK2", "viability z-score, siRNA alone": -0.906, "viability vs control, siRNA alone": 0.834}
{"target": "CDKN1A", "viability z-score, siRNA alone": 0.162, "viability vs control, siRNA alone": 0.93}
{"target": "ATM", "viability z-score, siRNA alone": 0.936, "viability vs control, siRNA alone": 1}
{"target": "PKDCC", "viability z-score, siRNA alone": 0.936, "viability vs control, siRNA alone": 1}
{"target": "PANK3", "viability z-score, siRNA alone": -0.00713, "viability vs control, siRNA alone": 0.915}
{"target": "EFNA4", "viability z-score, siRNA alone": 0.936, "viability vs control, siRNA alone": 1}
{"target": "ROR1", "viability z-score, siRNA alone": 0.936, "viability vs control, siRNA alone": 1}
{"target": "PFKFB1", "viability z-score, siRNA alone": -0.0859, "viability vs control, siRNA alone": 0.908}
{"target": "ULK4", "viability z-score, siRNA alone": -1.6, "viability vs control, siRNA alone": 0.772}
{"target": "MAPK12", "viability z-score, siRNA alone": -0.0201, "viability vs control, siRNA alone": 0.914}
{"target": "STRADA", "viability z-score, siRNA alone": 0.936, "viability vs control, siRNA alone": 1}
{"target": "ADK", "viability z-score, siRNA alone": 0.694, "viability vs control, siRNA alone": 0.978}
{"target": "LATS2", "viability z-score, siRNA alone": -0.941, "viability vs control, siRNA alone": 0.831}
{"target": "NR4A2", "viability z-score, siRNA alone": -0.55, "viability vs control, siRNA alone": 0.866}
{"target": "CEP290", "viability z-score, siRNA alone": -0.404, "viability vs control, siRNA alone": 0.879}
{"target": "PAK3", "viability z-score, siRNA alone": 0.827, "viability vs control, siRNA alone": 0.99}
{"target": "SIK2", "viability z-score, siRNA alone": -1.88, "viability vs control, siRNA alone": 0.746}
{"target": "NLK", "viability z-score, siRNA alone": 0.936, "viability vs control, siRNA alone": 1}
